Reference: the supplement of paper PMC12823440, “Inhibitors supercharge kinase turnover through native proteolytic circuits” (Nature, 2025)
Some of the results follow. The calls rarely recur for the same compound in another form.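 Kinases, fused to nanoluciferase, were expressed in K562 cells; luminescence was measured every 4 h from 2 to 18 h as percent of control (DMSO = 100%, positive control = 0%). A time point is decreased if signal falls significantly (2 sigma). Hits were called by the authors by a rule that is not shown; the count of time points alone does not decide it.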

Protein sequences, listed by entry. Tags and fused reporters are not part of them. Lines headed by an entry give the natural chain unless they say otherwise; changes in a name come on top.
UniProt O15530: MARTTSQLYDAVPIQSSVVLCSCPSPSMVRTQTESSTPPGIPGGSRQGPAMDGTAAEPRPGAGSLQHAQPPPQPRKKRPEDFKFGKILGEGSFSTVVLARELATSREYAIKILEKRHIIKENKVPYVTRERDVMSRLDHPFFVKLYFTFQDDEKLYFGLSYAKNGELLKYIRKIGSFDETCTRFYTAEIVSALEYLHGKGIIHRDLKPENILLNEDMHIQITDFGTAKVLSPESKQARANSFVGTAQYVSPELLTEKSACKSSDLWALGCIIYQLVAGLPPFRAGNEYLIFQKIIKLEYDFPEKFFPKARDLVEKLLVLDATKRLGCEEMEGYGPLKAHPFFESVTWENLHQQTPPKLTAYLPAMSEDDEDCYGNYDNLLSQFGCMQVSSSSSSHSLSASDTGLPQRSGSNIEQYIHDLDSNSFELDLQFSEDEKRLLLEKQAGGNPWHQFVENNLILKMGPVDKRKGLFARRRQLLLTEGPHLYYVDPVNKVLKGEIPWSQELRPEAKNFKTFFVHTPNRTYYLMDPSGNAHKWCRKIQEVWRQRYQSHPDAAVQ
UniProt P53350, whole entry: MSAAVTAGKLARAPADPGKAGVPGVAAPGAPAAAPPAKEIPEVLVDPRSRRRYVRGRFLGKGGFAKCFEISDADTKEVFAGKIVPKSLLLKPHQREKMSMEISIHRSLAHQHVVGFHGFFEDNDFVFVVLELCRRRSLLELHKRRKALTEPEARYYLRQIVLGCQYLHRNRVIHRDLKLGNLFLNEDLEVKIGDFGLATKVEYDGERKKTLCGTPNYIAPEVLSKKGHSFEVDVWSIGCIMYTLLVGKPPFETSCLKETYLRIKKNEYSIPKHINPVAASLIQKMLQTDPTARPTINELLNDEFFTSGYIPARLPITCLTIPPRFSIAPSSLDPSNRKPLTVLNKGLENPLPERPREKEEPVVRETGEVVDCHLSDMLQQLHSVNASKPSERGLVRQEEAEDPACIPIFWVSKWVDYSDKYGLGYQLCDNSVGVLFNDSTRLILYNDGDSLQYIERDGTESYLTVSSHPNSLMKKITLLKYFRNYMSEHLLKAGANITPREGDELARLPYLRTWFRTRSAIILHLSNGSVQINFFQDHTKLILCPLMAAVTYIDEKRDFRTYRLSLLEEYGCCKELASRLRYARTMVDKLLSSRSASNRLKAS
UniProt Q14289, whole entry, looked up: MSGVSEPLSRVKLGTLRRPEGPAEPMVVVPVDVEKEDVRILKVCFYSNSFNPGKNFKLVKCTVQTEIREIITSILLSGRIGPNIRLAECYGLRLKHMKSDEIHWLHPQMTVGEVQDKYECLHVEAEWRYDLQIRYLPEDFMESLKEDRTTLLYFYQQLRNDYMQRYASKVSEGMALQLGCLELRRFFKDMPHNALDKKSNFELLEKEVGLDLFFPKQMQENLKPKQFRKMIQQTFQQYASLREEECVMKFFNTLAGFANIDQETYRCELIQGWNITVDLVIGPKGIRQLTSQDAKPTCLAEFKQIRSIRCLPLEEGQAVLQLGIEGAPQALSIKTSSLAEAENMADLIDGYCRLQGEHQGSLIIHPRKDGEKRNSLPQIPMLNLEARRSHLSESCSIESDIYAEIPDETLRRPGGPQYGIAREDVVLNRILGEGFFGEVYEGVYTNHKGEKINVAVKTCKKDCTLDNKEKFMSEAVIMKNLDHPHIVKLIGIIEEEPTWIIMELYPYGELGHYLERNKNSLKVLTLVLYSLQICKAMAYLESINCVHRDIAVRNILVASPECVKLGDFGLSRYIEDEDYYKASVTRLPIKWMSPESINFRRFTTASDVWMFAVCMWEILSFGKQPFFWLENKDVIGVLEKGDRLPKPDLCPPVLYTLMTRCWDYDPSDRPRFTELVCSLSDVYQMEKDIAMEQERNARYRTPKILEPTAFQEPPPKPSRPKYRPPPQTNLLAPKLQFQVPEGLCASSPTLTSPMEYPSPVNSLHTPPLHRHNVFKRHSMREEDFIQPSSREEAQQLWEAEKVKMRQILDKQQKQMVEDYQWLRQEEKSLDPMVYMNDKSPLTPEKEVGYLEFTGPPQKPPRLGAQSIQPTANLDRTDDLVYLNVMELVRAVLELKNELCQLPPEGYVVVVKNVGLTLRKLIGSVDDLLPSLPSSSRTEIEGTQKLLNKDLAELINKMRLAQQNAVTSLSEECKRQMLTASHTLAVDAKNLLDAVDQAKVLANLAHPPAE
UniProt P07949, whole entry, looked up: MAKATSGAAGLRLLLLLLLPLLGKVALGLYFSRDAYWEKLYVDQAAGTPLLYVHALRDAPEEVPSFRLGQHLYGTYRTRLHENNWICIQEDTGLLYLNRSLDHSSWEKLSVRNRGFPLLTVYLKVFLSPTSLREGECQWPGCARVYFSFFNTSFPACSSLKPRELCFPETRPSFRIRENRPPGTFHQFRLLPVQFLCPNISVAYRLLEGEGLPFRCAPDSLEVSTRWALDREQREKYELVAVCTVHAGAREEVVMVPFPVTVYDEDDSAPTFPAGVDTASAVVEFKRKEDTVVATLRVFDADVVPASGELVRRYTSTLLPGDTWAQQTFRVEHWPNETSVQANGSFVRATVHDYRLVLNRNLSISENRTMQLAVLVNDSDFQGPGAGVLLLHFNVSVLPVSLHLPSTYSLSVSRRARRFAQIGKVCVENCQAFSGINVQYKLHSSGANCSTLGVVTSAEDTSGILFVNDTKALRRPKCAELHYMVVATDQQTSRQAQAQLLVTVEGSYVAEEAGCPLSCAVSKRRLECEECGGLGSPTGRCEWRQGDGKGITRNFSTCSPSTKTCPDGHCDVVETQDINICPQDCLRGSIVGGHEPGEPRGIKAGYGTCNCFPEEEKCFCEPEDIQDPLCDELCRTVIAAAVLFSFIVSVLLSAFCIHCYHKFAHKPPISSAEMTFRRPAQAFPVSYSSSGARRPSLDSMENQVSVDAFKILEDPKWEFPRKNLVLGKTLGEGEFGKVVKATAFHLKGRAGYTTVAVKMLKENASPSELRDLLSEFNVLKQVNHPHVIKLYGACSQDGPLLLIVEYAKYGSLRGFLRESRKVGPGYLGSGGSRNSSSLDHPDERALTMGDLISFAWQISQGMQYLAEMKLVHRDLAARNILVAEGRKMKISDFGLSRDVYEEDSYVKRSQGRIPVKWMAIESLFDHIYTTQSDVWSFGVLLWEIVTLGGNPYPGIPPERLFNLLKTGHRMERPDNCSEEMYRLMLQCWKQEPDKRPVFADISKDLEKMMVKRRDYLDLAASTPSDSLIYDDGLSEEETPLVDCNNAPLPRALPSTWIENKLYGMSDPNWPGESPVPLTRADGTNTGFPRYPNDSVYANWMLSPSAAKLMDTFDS
UniProt P07949, whole entry M918T, looked up: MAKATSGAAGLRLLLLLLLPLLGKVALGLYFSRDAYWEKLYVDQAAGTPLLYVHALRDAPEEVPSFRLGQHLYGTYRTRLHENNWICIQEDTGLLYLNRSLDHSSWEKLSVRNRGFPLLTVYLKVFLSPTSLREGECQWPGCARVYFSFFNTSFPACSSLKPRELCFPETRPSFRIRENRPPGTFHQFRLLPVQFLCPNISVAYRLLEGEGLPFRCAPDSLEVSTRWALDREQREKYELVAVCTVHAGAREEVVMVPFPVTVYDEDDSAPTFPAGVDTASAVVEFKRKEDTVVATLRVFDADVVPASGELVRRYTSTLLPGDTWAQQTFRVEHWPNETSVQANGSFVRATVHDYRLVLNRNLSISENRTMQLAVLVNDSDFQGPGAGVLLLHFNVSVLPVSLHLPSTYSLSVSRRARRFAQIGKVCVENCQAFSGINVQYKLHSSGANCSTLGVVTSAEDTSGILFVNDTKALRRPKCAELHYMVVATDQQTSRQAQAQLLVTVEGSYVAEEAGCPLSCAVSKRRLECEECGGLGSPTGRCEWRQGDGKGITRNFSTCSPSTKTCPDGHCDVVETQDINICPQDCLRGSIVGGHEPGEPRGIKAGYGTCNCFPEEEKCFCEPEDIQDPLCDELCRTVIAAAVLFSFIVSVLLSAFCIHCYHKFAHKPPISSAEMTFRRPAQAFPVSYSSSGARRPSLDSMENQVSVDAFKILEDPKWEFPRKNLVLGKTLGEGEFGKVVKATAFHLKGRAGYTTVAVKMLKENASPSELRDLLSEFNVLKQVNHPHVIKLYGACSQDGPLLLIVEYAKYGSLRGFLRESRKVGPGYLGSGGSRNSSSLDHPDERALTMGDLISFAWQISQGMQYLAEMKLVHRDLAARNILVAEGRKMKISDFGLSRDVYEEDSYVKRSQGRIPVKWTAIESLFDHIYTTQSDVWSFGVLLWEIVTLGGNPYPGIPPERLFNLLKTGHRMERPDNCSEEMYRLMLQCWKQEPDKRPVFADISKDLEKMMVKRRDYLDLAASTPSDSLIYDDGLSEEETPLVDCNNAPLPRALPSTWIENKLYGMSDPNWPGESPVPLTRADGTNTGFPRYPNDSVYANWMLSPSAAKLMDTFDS
UniProt Q15418, whole entry: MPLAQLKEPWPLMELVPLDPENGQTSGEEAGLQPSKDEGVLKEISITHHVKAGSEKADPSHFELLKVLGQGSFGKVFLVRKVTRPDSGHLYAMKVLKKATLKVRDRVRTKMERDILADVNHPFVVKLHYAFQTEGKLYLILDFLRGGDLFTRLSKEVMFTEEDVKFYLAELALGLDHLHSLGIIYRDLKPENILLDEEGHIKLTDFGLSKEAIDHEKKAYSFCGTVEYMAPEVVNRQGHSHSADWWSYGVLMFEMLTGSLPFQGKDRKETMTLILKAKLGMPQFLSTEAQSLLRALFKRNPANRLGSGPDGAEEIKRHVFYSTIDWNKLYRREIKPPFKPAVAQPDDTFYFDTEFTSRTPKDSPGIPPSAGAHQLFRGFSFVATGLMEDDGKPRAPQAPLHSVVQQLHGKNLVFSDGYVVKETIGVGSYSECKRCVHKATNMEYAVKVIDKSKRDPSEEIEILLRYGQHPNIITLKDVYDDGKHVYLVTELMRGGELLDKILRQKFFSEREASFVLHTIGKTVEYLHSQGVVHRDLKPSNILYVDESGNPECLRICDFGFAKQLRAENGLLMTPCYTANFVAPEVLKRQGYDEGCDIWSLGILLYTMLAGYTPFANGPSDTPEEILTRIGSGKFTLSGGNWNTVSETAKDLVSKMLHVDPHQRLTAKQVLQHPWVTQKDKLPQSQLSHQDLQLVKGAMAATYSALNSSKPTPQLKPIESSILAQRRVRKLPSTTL
UniProt Q9NYA1, whole entry: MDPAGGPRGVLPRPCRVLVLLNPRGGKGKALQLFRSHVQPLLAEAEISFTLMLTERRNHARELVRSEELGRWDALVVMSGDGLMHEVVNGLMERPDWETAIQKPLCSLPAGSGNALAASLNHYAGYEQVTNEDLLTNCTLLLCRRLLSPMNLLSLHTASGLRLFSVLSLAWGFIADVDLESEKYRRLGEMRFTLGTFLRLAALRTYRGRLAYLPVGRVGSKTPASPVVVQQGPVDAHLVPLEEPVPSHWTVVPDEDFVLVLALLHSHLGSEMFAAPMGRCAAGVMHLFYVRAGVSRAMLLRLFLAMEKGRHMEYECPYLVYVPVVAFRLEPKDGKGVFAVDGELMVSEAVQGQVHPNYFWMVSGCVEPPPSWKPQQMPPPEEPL

Experiments:
Experiment in all cases: kinase-Nluc reporter destabilization hit call (1 = scored as downregulated) (binary); higher = compound decreases kinase abundance
Conditions in all cases: K562; 2-18 h
[1] = target: PDPK1 (UniProt O15530)
[2] = target: PIK4CA (UniProt P42356)
[3] = target: PIK4CB (UniProt Q9UBF8)
[4] = target: PLK1 (UniProt P53350)
[5] = target: PRKAA1 (UniProt Q13131)
[6] = target: PRKCA (UniProt P17252)
[7] = target: PTK2 (UniProt Q05397)
[8] = target: PTK2B (UniProt Q14289)
[9] = target: RAF1 (UniProt P04049)
[10] = target: RAF1_S257L (clone: RAF1_mut) (UniProt P04049)
[11] = target: RET (UniProt P07949)
[12] = target: RET_M918T (clone: RET_mut) (UniProt P07949)
[13] = target: RIOK1 (UniProt Q9BRS2)
[14] = target: RIPK1 (UniProt Q13546)
[15] = target: RIPK2 (UniProt O43353)
[16] = target: ROR2 (UniProt Q01974)
[17] = target: RPS6KA1 (UniProt Q15418)
[18] = target: SPHK1 (UniProt Q9NYA1)
[19] = target: SRC (UniProt P12931)
[20] = target: STK24 (UniProt Q9Y6E0)

Measured: kinase-Nluc reporter destabilization hit call

O=C(NOC[C@H](O)CO)c1ccc(F)c(F)c1Nc1ccc(I)cc1F (2.5 µM)
inactive: [1] 0 | [2] 0 | [3] 0 | [4] 0 | [5] 0 | [6] 0 | [7] 0 | [8] 0 | [9] 0 | [10] 0 | [11] 0 | [12] 0 | [13] 0 | [14] 0 | [15] 0 | [16] 0 | [17] 0 | [18] 0 | [19] 0 | [20] 0

CCN(CC)CCCCNc1ncc2cc(-c3c(Cl)cccc3Cl)c(NC(=O)NC(C)(C)C)nc2n1 (2.5 µM)
inactive: [1] 0 | [2] 0 | [3] 0 | [4] 0 | [5] 0 | [6] 0 | [7] 0 | [8] 0 | [9] 0 | [10] 0 | [11] 0 | [12] 0 | [13] 0 | [14] 0 | [15] 0 | [16] 0 | [17] 0 | [18] 0 | [19] 0 | [20] 0

C=CC(=O)N1C[C@H](Nc2ncnc3[nH]ccc23)CC[C@@H]1C [Ritlecitinib] (10 µM)
inactive: [1] 0 | [2] 0 | [3] 0 | [4] 0 | [5] 0 | [6] 0 | [7] 0 | [8] 0 | [9] 0 | [10] 0 | [11] 0 | [12] 0 | [13] 0 | [14] 0 | [15] 0 | [16] 0 | [17] 0 | [18] 0 | [19] 0 | [20] 0

O=c1oc2c(C3OCCCO3)c(O)ccc2c2c1CNCC2 (10 µM)
inactive: [1] 0 | [2] 0 | [3] 0 | [4] 0 | [5] 0 | [6] 0 | [7] 0 | [8] 0 | [9] 0 | [10] 0 | [11] 0 | [12] 0 | [13] 0 | [14] 0 | [15] 0 | [16] 0 | [17] 0 | [18] 0 | [19] 0 | [20] 0

C[C@H](CN(C)C)Oc1nc(Nc2cc3cccc(Cl)c3cn2)cnc1C#N (10 µM)
inactive: [1] 0 | [2] 0 | [3] 0 | [4] 0 | [5] 0 | [6] 0 | [7] 0 | [8] 0 | [9] 0 | [10] 0 | [11] 0 | [12] 0 | [13] 0 | [14] 0 | [15] 0 | [16] 0 | [17] 0 | [18] 0 | [19] 0 | [20] 0

COc1cc2nc(C)nc(N[C@H](C)c3cc(N)cc(C(F)(F)F)c3)c2cc1O[C@H]1CCOC1 (10 µM)
inactive: [1] 0 | [2] 0 | [3] 0 | [4] 0 | [5] 0 | [6] 0 | [7] 0 | [8] 0 | [9] 0 | [10] 0 | [11] 0 | [12] 0 | [13] 0 | [14] 0 | [15] 0 | [16] 0 | [17] 0 | [18] 0 | [19] 0 | [20] 0

CCN1CCN(Cc2ccc(C(=O)Nc3ccc(C)c(Oc4ccc5c(c4)CC(=O)N5)c3)cc2C(F)(F)F)CC1 (2.5 µM)
inactive: [1] 0 | [2] 0 | [3] 0 | [4] 0 | [5] 0 | [6] 0 | [7] 0 | [8] 0 | [9] 0 | [10] 0 | [11] 0 | [12] 0 | [13] 0 | [14] 0 | [15] 0 | [16] 0 | [17] 0 | [18] 0 | [19] 0 | [20] 0

COc1cc(F)cc([C@@H](CO)NC(=O)[C@@H](C)N2Cc3ccc(-c4nc(NC5CCOCC5)ncc4Cl)cc3C2=O)c1 [ERK1/2 inhibitor 2] (10 µM)
inactive: [1] 0 | [2] 0 | [3] 0 | [4] 0 | [5] 0 | [6] 0 | [7] 0 | [8] 0 | [9] 0 | [10] 0 | [11] 0 | [12] 0 | [13] 0 | [14] 0 | [15] 0 | [16] 0 | [17] 0 | [18] 0 | [19] 0 | [20] 0

O=C(/C=C/c1ccc(O)c(O)c1)c1ccc(O)cc1O [Butein] (10 µM)
inactive: [1] 0 | [2] 0 | [3] 0 | [4] 0 | [5] 0 | [6] 0 | [7] 0 | [8] 0 | [9] 0 | [10] 0 | [11] 0 | [12] 0 | [13] 0 | [14] 0 | [15] 0 | [16] 0 | [17] 0 | [18] 0 | [19] 0 | [20] 0

CCOc1ccn(-c2ccc(F)cc2)c(=O)c1C(=O)Nc1ccc(Oc2ccnc(N)c2Cl)c(F)c1 (10 µM)
inactive: [1] 0 | [2] 0 | [3] 0 | [4] 0 | [5] 0 | [6] 0 | [7] 0 | [8] 0 | [9] 0 | [10] 0 | [11] 0 | [12] 0 | [13] 0 | [14] 0 | [15] 0 | [16] 0 | [17] 0 | [18] 0 | [19] 0 | [20] 0

CCN1C(=O)N(c2c(F)c(OC)cc(OC)c2F)Cc2cnc3[nH]c(CN4CCOCC4)cc3c21 [Pemigatinib] (10 µM)
inactive: [1] 0 | [2] 0 | [3] 0 | [4] 0 | [5] 0 | [6] 0 | [7] 0 | [8] 0 | [9] 0 | [10] 0 | [11] 0 | [12] 0 | [13] 0 | [14] 0 | [15] 0 | [16] 0 | [17] 0 | [18] 0 | [19] 0 | [20] 0

O=c1cc(N2CCOCC2)oc2c(-c3ccccc3)cccc12 (10 µM)
inactive: [1] 0 | [2] 0 | [3] 0 | [4] 0 | [5] 0 | [6] 0 | [7] 0 | [8] 0 | [9] 0 | [10] 0 | [11] 0 | [12] 0 | [13] 0 | [14] 0 | [15] 0 | [16] 0 | [17] 0 | [18] 0 | [19] 0 | [20] 0
